# Earlier results as cited in article PMC10674299, “Discovery of Guanfacine as a Novel TAAR1 Agonist: A Combination Strategy through Molecular Modeling Studies and Biological Assays” (Pharmaceuticals, 2023).
# Certain results were filed several times, with different values. This is not the full list of results. The source may hold further records. The records of an entry do not match, cause unknown; some may be repeats, others may stem from another dose, organism or construct than stated.
# Target: α2-ADR
# Conditions: read-out: α2-ADR Ki; cited from earlier work
smiles,measurement,value
CC(C)N(Cc1c[nH]cn1)c1ccccc1,Ki,521 nM and 128 nM to 521 nM
